Values from PubChem BioAssay AID1508587 (Peter MacCallum Cancer Centre, 2020).
Aim: 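Knockdowns that add to vemurafenib's cut in melanoma glycolysis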 (follow-up of hits). System: human WM266.4 melanoma cells with a BRAF V600 mutation. Knock-down reagent: single siRNA against human genes, 25 nM. Time to read-out: 96 h. Challenge: vemurafenib 300 nM (about IC25), given 48 h after transfection for 48 h. Read-out: 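Per-cell lactate from absorbance divided by DAPI nucleus counts, compared with and without vemurafenib, relative to non-targeting siRNA, mean of 2 replicates; nuclear counts also give cell number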. Reading the numbers: lactate per cell, drug vs no drug: higher = less drug-induced drop in lactate per cell; lactate per cell with vemurafenib: higher = more lactate per cell under drug; lactate per cell without drug: higher = more lactate per cell without drug; cell growth with vemurafenib and cell growth without drug: higher = more cell growth over 48 h. Call rule: 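a duplex is active when its lactate-per-cell ratio with versus without drug falls under 0.55, i.e. 2 SD below non-targeting; a gene is confirmed if 2 or more of 4 duplexes pass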.
In all, the deposit lists about 1,600 reagents; this is a random part of them. 623 of them (39%) count as active. 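Calls are for each duplex; lactate ratios contain extreme outliers.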 The numbers tell different reagents against one gene apart.

no.	gene knocked down	reagent	lactate per cell, drug vs no drug	lactate per cell with vemurafenib	lactate per cell without drug	cell growth with vemurafenib	cell growth without drug	Outcome
1	TIMM8B (translocase of inner mitochondrial membrane 8 homolog B)	1	0.64	1.4	1.44	0.18	0.34	inactive
2	TIMM8B (translocase of inner mitochondrial membrane 8 homolog B)	2	0.74	3.33	2.95	0.08	0.06	inactive
3	TIMM8B (translocase of inner mitochondrial membrane 8 homolog B)	3	0.52	0.61	0.77	1.12	1.19	active
4	TIMM8B (translocase of inner mitochondrial membrane 8 homolog B)	4	0.66	1.04	1.04	0.73	0.72	inactive
5	RAB34 (RAB34, member RAS oncogene family)	1	0.59	4.89	5.73	0.05	0	inactive
6	RAB34 (RAB34, member RAS oncogene family)	2	0.86	2.48	1.97	0.09	0.07	inactive
7	RAB34 (RAB34, member RAS oncogene family)	3	0.78	0.69	0.65	0.46	0.52	inactive
8	RAB34 (RAB34, member RAS oncogene family)	4	0.92	2.38	1.77	0.22	0.4	inactive
9	FOXO4 (forkhead box O4)	1	0.37	0.6	1.03	0.35	0.52	active
10	FOXO4 (forkhead box O4)	2	0.55	1.1	1.19	0.7	0.55	inactive
11	FOXO4 (forkhead box O4)	3	0.42	0.98	1.35	0.4	0.4	active
12	FOXO4 (forkhead box O4)	4	0.57	1.29	1.47	0.19	0.21	inactive
13	HPS4 (HPS4 biogenesis of lysosomal organelles complex 3 subunit 2)	1	0.88	1.04	0.78	0.26	0.76	inactive
14	HPS4 (HPS4 biogenesis of lysosomal organelles complex 3 subunit 2)	2	0.46	2.62	3.75	-0.02	-0.02	active
15	HPS4 (HPS4 biogenesis of lysosomal organelles complex 3 subunit 2)	3	0.76	1.12	0.97	0.63	0.87	inactive
16	HPS4 (HPS4 biogenesis of lysosomal organelles complex 3 subunit 2)	4	0.44	0.7	1.04	0.55	0.75	active
17	IMMT (inner membrane mitochondrial protein)	1	0.66	1.21	1.14	0.78	0.72	inactive
18	IMMT (inner membrane mitochondrial protein)	2	0.35	0.52	1	0.43	0.53	active
19	IMMT (inner membrane mitochondrial protein)	3	0.58	0.98	1.07	0.8	0.88	inactive
20	IMMT (inner membrane mitochondrial protein)	4	0.82	1.64	1.28	0.67	0.81	inactive
21	CPA1 (carboxypeptidase A1)	1	0.58	1.82	1.84	0.38	0.35	inactive
22	CPA1 (carboxypeptidase A1)	2	0.45	1.09	1.42	0.4	0.36	active
23	CPA1 (carboxypeptidase A1)	3	0.53	1	1.12	0.87	0.81	active
24	CPA1 (carboxypeptidase A1)	4	0.9	1.88	1.28	0.32	0.56	inactive
25	FHL1 (four and a half LIM domains 1)	1	0.49	1.44	2.04	0.11	-0.05	active
26	FHL1 (four and a half LIM domains 1)	2	0.62	0.76	0.86	0.77	0.89	inactive
27	FHL1 (four and a half LIM domains 1)	3	0.89	1.29	1	0.59	1.04	inactive
28	FHL1 (four and a half LIM domains 1)	4	0.68	2.33	2.36	0.03	0.05	inactive
29	SLC25A35	1	0.58	2.61	2.77	0.13	0.07	inactive
30	SLC25A35	2	0.74	0.99	0.82	0.45	0.72	inactive
31	SLC25A35	3	0.78	1.23	0.99	-0.1	-0.01	inactive
32	SLC25A35	4	0.62	1.29	1.31	0.46	0.32	inactive
33	TBCB (tubulin folding cofactor B)	1	0.7	1.17	1.14	0.96	0.8	inactive
34	TBCB (tubulin folding cofactor B)	2	0.54	0.94	1.19	0.69	0.52	active
35	TBCB (tubulin folding cofactor B)	3	0.54	1.12	1.44	0.03	0.15	active
36	TBCB (tubulin folding cofactor B)	4	0.88	1.5	1.18	0.62	0.88	inactive
37	NUP35 (nucleoporin 35)	1	0.6	2.36	2.61	0.01	0.06	inactive
38	NUP35 (nucleoporin 35)	2	0.46	0.9	1.25	0.57	0.4	active
39	NUP35 (nucleoporin 35)	3	0.26	0.54	1.28	-0.03	-0.03	active
40	NUP35 (nucleoporin 35)	4	0.78	1.54	1.24	0.31	0.36	inactive
41	ARHGAP6 (Rho GTPase activating protein 6)	1	0.7	2.58	2.43	0.05	0.03	inactive
42	ARHGAP6 (Rho GTPase activating protein 6)	2	0.65	1.17	1.22	0.2	0.41	inactive
43	ARHGAP6 (Rho GTPase activating protein 6)	3	0.48	0.63	0.87	0.67	0.9	active
44	ARHGAP6 (Rho GTPase activating protein 6)	4	0.72	2.05	1.86	0.21	0.32	inactive

A portion of the results above:
no.	gene knocked down	reagent	lactate per cell, drug vs no drug	lactate per cell with vemurafenib	lactate per cell without drug	cell growth with vemurafenib	cell growth without drug	Outcome
3	TIMM8B (translocase of inner mitochondrial membrane 8 homolog B)	3	0.52	0.61	0.77	1.12	1.19	active
4	TIMM8B (translocase of inner mitochondrial membrane 8 homolog B)	4	0.66	1.04	1.04	0.73	0.72	inactive
5	RAB34 (RAB34, member RAS oncogene family)	1	0.59	4.89	5.73	0.05	0	inactive
